Source: patent publication US20180258114

By UniProt entry, the sequences of proteins in these tests, tags left out. Where a name states a change or a piece, a line headed by the entry shows the natural chain unless it says otherwise.
UniProt P00970: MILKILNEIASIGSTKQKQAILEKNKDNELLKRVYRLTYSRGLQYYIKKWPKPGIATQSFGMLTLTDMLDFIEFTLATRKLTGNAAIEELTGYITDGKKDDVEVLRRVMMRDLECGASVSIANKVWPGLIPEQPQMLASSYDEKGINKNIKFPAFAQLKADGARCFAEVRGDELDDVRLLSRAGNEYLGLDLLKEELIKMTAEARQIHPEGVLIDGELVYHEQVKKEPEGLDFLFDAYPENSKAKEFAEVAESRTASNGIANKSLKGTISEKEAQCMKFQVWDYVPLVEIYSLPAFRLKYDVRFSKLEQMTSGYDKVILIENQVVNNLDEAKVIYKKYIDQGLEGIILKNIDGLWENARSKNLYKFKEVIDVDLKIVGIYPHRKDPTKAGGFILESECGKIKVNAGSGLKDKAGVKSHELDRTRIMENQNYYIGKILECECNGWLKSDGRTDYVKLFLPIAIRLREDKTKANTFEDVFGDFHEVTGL

Molecular target: T4 DNA ligase (UniProt P00970)
Assay: EMSA
Conditions: ATP, 37 C 24 h, purified recombinant protein

Sequence | activity on this sequence (on gold nanoparticle, terminal 3'-OH, ligation of linker-modified peptide and Cy3 to DNA-NP, agarose gel shift, presence of bridge strand not stated, single-stranded DNA) | activity on this sequence (5' monophosphate linker on ligation strand, anchor on gold nanoparticle, ligation, 1% agarose gel shift of nanoparticle, strands as in FIG. 7)
TTTTTTTTTTCAATCACAACCA | active | –
TTTTTTTTTTCAATCACAACCA / CGTCATCAACGATGGTTGTGATTG / TCGTTGATGACGCTAGCTAGAC [nicked anchor/bridge/mp-ligation DNA on gold nanoparticle] | – | active
